Measurements: paper PMC13189625
Results are given in words; binding and its absence hold for the method and conditions named. In cells and extracts the contact can be indirect. These calls come from enrichment with a bait or labelling near it, and not all partners need be listed. A no says only that the protein was not detected with the bait. Where a sequence is shown, tags or fusion partners need not be part of it.

Sequences of proteins named here, by UniProt entry; tags and fusion partners are left off. Residues count along the entry.
UniProt O54851: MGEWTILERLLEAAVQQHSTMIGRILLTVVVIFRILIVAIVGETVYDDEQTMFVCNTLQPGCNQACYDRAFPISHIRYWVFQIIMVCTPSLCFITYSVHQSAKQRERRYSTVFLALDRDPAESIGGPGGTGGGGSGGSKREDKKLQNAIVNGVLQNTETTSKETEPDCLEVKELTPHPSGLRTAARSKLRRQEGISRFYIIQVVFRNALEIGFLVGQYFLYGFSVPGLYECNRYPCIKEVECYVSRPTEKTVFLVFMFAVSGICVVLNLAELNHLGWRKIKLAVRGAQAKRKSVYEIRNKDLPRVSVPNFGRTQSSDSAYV
UniProt Q9Z0R4: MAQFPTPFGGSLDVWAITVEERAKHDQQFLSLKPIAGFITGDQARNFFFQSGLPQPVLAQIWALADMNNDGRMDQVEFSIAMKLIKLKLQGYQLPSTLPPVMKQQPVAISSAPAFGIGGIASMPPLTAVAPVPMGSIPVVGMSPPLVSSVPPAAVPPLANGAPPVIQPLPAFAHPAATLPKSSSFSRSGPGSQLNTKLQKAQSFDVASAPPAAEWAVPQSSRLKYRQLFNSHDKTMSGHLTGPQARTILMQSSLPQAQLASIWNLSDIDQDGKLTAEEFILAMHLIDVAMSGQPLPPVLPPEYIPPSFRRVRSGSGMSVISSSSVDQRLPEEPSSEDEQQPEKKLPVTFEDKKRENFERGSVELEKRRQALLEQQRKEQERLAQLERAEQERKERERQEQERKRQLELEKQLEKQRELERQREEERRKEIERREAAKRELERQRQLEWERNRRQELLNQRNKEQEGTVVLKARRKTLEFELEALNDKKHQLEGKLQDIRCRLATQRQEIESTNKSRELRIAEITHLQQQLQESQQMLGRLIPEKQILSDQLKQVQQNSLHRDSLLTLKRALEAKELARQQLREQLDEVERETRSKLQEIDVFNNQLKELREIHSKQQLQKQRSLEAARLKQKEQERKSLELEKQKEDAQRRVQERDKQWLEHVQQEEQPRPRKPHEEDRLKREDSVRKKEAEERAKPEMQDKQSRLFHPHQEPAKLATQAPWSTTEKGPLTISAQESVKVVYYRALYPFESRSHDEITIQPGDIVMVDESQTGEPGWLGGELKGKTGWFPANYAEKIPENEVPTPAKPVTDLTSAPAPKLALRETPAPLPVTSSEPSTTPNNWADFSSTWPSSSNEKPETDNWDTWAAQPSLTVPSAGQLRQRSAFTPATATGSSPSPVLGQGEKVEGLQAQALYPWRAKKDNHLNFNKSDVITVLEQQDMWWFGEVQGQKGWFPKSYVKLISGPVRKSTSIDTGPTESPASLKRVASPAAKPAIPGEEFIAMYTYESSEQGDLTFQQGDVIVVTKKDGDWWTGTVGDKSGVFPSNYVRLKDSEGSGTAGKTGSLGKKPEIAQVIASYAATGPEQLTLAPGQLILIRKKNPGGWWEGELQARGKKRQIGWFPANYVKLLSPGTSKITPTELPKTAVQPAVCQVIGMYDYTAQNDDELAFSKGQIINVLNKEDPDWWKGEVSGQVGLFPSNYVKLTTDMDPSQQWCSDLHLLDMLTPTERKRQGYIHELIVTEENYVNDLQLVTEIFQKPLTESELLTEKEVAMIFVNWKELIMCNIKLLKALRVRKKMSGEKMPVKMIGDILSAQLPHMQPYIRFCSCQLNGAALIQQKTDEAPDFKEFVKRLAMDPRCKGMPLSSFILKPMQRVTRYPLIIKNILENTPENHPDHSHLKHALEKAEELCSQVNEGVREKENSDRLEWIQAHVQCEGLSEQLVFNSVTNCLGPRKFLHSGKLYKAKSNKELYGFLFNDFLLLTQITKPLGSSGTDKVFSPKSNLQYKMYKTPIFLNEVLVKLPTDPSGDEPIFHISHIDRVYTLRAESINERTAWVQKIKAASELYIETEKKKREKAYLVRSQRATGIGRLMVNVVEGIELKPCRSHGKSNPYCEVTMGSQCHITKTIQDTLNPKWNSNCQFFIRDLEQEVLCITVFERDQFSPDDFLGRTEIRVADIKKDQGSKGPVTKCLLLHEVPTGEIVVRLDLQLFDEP
UniProt P13595, residues 20-1115: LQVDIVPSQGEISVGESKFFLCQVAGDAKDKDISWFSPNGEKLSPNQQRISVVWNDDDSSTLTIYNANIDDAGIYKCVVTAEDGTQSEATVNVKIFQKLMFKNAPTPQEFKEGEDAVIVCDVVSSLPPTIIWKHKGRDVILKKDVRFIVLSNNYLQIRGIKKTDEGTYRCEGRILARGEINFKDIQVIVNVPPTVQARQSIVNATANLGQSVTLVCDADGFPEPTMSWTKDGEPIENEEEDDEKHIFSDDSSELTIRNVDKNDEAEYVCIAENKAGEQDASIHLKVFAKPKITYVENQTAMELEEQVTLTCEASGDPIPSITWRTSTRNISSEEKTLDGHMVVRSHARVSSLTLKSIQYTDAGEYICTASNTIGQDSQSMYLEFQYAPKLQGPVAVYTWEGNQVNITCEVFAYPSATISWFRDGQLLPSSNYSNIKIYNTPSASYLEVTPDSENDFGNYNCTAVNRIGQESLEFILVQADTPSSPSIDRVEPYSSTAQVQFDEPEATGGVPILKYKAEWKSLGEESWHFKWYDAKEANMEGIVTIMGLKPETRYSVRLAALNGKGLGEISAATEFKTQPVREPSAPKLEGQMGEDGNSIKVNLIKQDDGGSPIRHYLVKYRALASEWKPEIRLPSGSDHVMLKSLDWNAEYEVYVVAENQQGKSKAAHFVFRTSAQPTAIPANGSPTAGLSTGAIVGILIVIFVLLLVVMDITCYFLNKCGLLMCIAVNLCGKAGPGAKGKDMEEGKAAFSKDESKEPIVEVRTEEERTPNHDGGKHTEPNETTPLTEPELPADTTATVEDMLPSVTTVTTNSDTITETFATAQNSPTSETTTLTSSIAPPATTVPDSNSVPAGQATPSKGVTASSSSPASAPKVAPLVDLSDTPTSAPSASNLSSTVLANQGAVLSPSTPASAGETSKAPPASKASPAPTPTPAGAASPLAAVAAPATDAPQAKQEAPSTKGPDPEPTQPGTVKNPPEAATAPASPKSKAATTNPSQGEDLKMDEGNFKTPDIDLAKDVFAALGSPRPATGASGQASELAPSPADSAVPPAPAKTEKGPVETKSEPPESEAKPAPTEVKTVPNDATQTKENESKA
UniProt Q3UHD1, residues 34-1582: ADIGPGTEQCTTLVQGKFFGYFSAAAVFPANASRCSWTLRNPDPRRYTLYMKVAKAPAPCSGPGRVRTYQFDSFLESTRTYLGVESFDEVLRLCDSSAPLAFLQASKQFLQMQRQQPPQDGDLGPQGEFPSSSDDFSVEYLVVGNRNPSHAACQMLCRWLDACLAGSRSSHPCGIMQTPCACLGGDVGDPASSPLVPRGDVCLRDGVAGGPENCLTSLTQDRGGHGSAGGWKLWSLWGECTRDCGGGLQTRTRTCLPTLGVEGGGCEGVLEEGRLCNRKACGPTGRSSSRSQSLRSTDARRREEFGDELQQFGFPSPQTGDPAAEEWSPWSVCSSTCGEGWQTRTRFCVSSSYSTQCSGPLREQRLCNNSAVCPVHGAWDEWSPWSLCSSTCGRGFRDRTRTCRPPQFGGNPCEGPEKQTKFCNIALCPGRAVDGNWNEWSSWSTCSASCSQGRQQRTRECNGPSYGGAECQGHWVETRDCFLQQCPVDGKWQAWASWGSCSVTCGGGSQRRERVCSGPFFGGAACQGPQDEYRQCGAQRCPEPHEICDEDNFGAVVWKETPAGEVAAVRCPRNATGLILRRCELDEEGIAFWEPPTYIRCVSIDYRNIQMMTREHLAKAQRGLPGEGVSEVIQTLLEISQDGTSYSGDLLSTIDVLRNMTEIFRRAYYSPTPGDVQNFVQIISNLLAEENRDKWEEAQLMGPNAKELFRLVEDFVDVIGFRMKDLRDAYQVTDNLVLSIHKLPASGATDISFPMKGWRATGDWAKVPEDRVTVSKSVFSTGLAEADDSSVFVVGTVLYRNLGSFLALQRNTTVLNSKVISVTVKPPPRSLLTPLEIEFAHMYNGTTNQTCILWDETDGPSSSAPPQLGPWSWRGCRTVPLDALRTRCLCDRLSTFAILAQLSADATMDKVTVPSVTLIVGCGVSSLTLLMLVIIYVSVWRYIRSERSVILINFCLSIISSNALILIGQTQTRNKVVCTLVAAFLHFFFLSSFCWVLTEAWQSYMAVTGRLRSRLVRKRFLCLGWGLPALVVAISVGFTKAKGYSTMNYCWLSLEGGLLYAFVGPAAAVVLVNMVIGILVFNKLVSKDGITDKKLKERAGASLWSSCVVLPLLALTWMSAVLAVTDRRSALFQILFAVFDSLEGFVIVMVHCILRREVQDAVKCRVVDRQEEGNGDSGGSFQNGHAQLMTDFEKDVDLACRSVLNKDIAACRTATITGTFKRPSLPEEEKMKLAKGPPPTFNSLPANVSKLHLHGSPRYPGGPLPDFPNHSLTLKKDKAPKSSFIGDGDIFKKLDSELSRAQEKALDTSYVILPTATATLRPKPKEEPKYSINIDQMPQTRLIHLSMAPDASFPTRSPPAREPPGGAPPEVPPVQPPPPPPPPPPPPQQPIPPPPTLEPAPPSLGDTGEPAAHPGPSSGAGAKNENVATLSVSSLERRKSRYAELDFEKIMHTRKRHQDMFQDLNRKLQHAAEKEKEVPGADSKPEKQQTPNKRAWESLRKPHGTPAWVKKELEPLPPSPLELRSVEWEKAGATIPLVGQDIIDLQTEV
UniProt O08599: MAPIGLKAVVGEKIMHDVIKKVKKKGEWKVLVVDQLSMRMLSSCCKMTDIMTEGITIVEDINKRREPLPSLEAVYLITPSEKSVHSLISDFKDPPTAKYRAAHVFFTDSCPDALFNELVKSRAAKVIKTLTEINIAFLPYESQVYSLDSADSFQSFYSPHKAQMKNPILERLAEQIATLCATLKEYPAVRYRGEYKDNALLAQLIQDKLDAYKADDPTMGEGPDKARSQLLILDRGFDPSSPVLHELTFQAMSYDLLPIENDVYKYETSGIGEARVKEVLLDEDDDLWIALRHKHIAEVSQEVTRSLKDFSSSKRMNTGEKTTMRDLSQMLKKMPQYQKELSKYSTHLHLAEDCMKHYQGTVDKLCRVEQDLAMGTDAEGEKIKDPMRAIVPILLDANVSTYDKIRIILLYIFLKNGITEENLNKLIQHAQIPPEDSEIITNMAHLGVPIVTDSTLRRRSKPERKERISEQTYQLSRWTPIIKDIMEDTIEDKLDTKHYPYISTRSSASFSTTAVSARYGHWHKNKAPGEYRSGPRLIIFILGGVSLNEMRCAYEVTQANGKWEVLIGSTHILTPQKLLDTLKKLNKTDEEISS
UniProt Q7TSJ2: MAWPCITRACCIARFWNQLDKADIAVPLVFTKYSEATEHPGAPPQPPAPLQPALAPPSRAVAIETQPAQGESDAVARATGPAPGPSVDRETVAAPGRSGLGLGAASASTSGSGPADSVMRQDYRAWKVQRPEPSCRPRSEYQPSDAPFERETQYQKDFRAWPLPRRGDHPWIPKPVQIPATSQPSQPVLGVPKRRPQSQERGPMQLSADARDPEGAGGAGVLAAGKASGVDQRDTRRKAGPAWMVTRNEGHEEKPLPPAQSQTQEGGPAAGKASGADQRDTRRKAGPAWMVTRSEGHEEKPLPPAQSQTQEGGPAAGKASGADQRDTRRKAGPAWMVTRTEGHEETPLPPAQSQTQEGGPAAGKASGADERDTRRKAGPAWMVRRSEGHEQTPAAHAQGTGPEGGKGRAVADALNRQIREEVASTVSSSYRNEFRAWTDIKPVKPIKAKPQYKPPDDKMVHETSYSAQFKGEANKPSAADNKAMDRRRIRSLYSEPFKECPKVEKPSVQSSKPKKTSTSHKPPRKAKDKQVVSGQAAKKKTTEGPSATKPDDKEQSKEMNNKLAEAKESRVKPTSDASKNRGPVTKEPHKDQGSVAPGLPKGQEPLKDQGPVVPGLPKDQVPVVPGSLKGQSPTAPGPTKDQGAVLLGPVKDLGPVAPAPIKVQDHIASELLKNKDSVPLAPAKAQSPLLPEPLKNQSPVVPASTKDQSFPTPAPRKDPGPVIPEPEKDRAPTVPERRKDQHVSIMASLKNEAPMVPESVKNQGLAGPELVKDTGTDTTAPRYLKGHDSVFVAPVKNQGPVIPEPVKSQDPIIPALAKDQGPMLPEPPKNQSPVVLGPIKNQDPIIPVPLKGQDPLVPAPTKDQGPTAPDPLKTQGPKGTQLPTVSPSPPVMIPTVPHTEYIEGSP
UniProt Q9D6K5: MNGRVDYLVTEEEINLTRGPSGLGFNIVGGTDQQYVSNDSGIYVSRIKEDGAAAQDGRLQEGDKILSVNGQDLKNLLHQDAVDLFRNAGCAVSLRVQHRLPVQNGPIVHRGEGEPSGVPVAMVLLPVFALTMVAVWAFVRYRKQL

Molecular target: Cx36-EGFP (mouse) (UniProt O54851)
Assay: proximity labelling; GFP-directed TurboID in vivo: AAV HKamac_V5-TurboID-dGBP injected intravitreally into Cx36-EGFP mice (AII amacrine cells); 5 mM biotin subcutaneously on 4 days; 17 retinas a condition; streptavidin pull-down and LC/MS/MS; compared with injected wild-type mice, SAINT; done twice

| binding | Molecule |
| --- | --- |
| binds | Golgin subfamily A member 4 (from UniProt Q91VW5 1-2238) |
| binds | Itsn1 (from UniProt Q9Z0R4 1-1714) |
| binds | Neural cell adhesion molecule 1 (from UniProt P13595 20-1115) |
| binds | Neurobeachin (from UniProt Q9EPN1 1-2936) |
| binds | Signal-induced proliferation-associated 1-like protein 1 (from UniProt Q8C0T5 1-1782) |
| binds | brain-specific angiogenesis inhibitor 1 (from UniProt Q3UHD1 34-1582) (receptor) |
| binds | cingulin (from UniProt P59242 1-1191) |
| binds | signal induced proliferation associated 1 like 3 (mouse retina) (from UniProt G3X9J0 1-1776) |
| binds | ZO-2 (mouse retina) (protein, UniProt Q9Z0U1 1-1167) MEEVIWEQYTVTLQKDSKRGFGIAVSGGRDNPHFENGETSIVISDVLPGGPADGLLQENDRVVMVNGTPMEDVLHSFAVQQLRKSGKIAAIVVKRPRKVQVAPLQGSPPLSHDDRGFEVIEEFDGRSFRSGYSERSRHSSHDMLSHSWEGNRERGRPHQRTQSRERERSRGRSLERGLDQEDYGRSRERSRGRSLERGLDRDFVSRDHSRGRSIDRDYDRDYERSYHEAYEPDYGGGYSPSYDRRAHPETRYERSRSREHLRSRSPSPESRSRHEHKGQHDPDRPIGVLLTKSKANEEYGLRLGSQIFIKEMTRTGLATKDGNLHEGDIILKINGTVTENMSLTDARKLIEKSRGKLQLVVLRDSKQTLINIPALNDSDSEVEDISEIESNRSFSPEERRQQYSDQDYHSSTEKLKERPSSREETSGRLSRMGATPTPFKSTGDITAAGVTEASREPRYQEEGPVPQPRTAPRVFLRPSPEDEAIYGPNTKMVRFKKGDSVGLRLAGGNDVGIFVAGIQEGTSAEQEGLQEGDQILKVNTQDFRGLVREDAVLYLLEIPKGETVTILAQSRADVYRDILACGRGDSFFIRSHFECEKETPQSLAFTRGEVFRVVDTLYDGKLGHWLAVRIGNELEKGLIPNKSRAEQMASVQNAQRENAGDRADFWRMRGQRSSGGVKKNLRKSREDLAAAVSVSTKFPAYEKVLLREAGFKRPVVLFGPIADIAMERLATELPDLFQTAKTEPKDAGSEKSSGVVRLNTVRQIIEQDKHALLDVTPKAVDLLNYTQWFPIVIFFNPDSRQGVKTIRQRLSPTSNKSSRKLFDQANKLKKTCSHLFTATINVNSANDGWFGSLKDSIQQQQNEAVWVSEGKMEGMDDDAEDRMSYLTAMGADYLSCDSRLISDFEDTDGEGGAYTDNELEEPAEEPLVSSITRSSEPVQHEENIRKSSPEPRAQMRRAASRDQLRDASPPPAFKPEPPKARSQNREDSFDYSKSNLPATAGSEIPGGSTKGYPPPIAAKPAFGRPILKPSTPVPMPESEEVGESTEEQEDAPRSVLGRVKIFEKMDHKAKLQRMQELQEAQNARIEIAQKHPDIYAVPIKAPKPDAGLPPHMSSRPPEPQKAPSRLYQDTRGSYGSDPEEEEYRQQLAAHSKRGYYSQPSRYRDTEL |

More lines, now with the values behind:

| Molecule | binding |
| --- | --- |
| Afadin (mouse retina) (from UniProt Q9QZQ1 1-1820) | binds |
| Apical junction component 1 (from UniProt A2AJA9 1-974) | binds |
| Mupp1 (mouse retina) (from UniProt Q8VBX6 1-2055) | no binding |
| Syntaxin binding protein 1 (from UniProt O08599 1-594) | binds |
| microtubule-associated protein 6 (from UniProt Q7TSJ2 1-906) | binds |
| synaptojanin 2 binding protein (mouse retina) (from UniProt Q9D6K5 1-145) | binds |
| Eps15l1 (mouse retina) (protein, UniProt Q60902 1-907) MAAPLVPLSQQIPGGNPLYESYYKQVDPAYTGRVGASEAALFLKKSGLSDIILGKIWDLADPEGKGFLDKQGFYVALRLVACAQSGHEVTLSSLSLTMPPPKFHDTSSPLMATQSSAETHWAVRVEEKAKFDGIFESLLPVNGLLSGDKVKPVLMNSKLPLDVLGRVWDLSDIDKDGHLDRDEFAVAMHLVYRALEKEPVPSILPPPLIPPSKRKKTVFAGAVPVLPASPPPKDSLRSTPSHGSVSSLNSTGSLSPKHSVKQPPVAWVVPVADKMRFDEIFLKTDLDLDGYVSGQEVKEIFMHSGLTQNLLAHIWALADTRQTGKLSKEQFALAMYFIQQKVSKGIDPPQVLSPDMVPPSERGTPIPDSSSTLASGEFTGVKELDDISQEIAQLQREKYSLEQDIREKEEAIRQKTSEVQELQNDLDRETSSLQELEAQKQDAQDRLDEMDQQKAKLRDMLSDVRQKCQDETQTISSLKTQIQSQESDLKSQEDDLNRAKSELNRLQQEETQLEQSIQAGRAQLETILRSLKCTQDDINQARSKLSQLQESHLEAHRSLEQYDQVPDGVSGTSLPDLATLNEGILLAERGGFGAMDDPFKNKALLFSNNSQELHPDPFQAEDPFKSDPFKGADPFKGDPFQSDPFSEQQTAATDPFGGDPFKESDPFHSSSSDDFFKKQTKNDPFTSDPFTKNPSLPSKLDPFESSDPFSSSSISSKGSDPFGTLDPFGSSSFSSAEGFADFSQMSKPPPSGPFSSSLGGTGFSDDPFKSKQDTPALPPKKPAPPRPKPPSGQSTPVSQLGSSDFPESPDPFQPLGADSGDPFQNKKGFGDPFSGKDPFAPSSSAKPPKTSSSGFADFTSFGNEEQQLAWAKRESEKAEQERLARLRRQEQEDLELAIALSKADMPA | binds |
| Snap91 (mouse retina) (protein, UniProt Q61548 1-901) MSGQTLTDRIAAAQYSVTGSAVARAVCKATTHEVMGPKKKHLDYLIQATNETNVNIPQMADTLFERATNSSWVVVFKALVTTHHLMVHGNERFIQYLASRNTLFNLSNFLDKSGSHGYDMSTFIRRYSRYLNEKAFSYRQMAFDFARVKKGADGVMRTMVPEKLLKSMPILQGQIDALLEFDVHPNELTNGVINAAFMLLFKDLIKLFACYNDGVINLLEKFFEMKKGQCKDALEIYKRFLTRMTRVSEFLKVAEQVGIDKGDIPDLTQAPSSLMETLEQHLNTLEGKKPGNNEGSGAPSPLSKSSPATTVTSPNSTPAKTIDTSPPVDIFATASAAAPVSSAKPSSDLLDLQPDFSGAAAGAAAPVVPPSGGATAWGDLLGEDSLAALSSVPCEAPISDPFAPEPSPPTTTTEPASASASTTTAVTAVTTEVDLFGDAFAASPGEAPAASEGATAPATPAPVAAALDACSGNDPFAPSEGSAEAAPELDLFAMKPPETSAPVVTPTASTAPPVPATAPSPAPTAVAATAATTTAAAAATTTATTSAAAATTAAAPPALDIFGDLFDSAPEVAAAPKPDAAPSIDLFGTDAFSSPPRGASPVPESSLTADLLSVDAFAAPSPASTASPAKAESSGVIDLFGDAFGSGASETQPAPQAVSSSSASADLLAGFGGSFMAPSTTPVTPAQNNLLQPSFEAAFGTTPSTSSSSSFDPSVFDGLGDLLMPTMAPSGQPAPVSMVPPSPAMAASKGLGSDLDSSLASLVGNLGISGTTSKKGDLQWNAGEKKLTGGANWQPKVTPATWSAGVPPQGTVPPTSSVPPGAGAPSVGQPGAGFGMPPSGTGMTMMSQQPVMFAQPMMRPPFGAAAVPGTQLSPSPTPATQSPKKPPAKDPLADLNIKDFL | binds |
| synaptotagmin 4 (mouse retina) (protein, UniProt P40749 1-425) MAPITTSRVEFDEIPTVVGIFSAFGLVFTVSLFAWICCQRRSAKSNKTPPYKFVHVLKGVDIYPENLSSKKKFGGDDKSEVKGKAALPNLSLHLDLEKRDLNGNFPKANPKAGSSSDLENVTPKLFTETEKEANSPESLKSSTSLTSEEKQEKLGTLFLSLEYNFEKKAFVVNIKEAQGLPAMDEQSMTSDPYIKMTILPEKKHRVKTRVLRKTLDPVFDETFTFYGIPYPHIQELSLHFTVLSFDRFSRDDVIGEVLIPLSGIELSDGKMLMTREIIKRNAKKSSGRGELLVSLCYQSTTNTLTVVVLKARHLPKSDVSGLSDPYVKVNLYHAKKRISKKKTHVKKCTPNAVFNELFVFDIPCESLEEISVEFLVLDSERGSRNEVIGRLVLGATAEGSGGGHWKEICDFPRRQIAKWHMLCDG | binds |
